No constants are given. Whether binding was seen depends on the method and setting. Binding seen in cells or lysates may run through a third protein. Some results given as binding are weak or reduced against the parent protein; the word gives no strength. Where a sequence is shown, tags or fusion partners need not be part of it.

Test [1] has as its target T1, Smc3(K198C, E1155Q)-HaloTag (S. cerevisiae) (UniProt P47037).
T1 sequence: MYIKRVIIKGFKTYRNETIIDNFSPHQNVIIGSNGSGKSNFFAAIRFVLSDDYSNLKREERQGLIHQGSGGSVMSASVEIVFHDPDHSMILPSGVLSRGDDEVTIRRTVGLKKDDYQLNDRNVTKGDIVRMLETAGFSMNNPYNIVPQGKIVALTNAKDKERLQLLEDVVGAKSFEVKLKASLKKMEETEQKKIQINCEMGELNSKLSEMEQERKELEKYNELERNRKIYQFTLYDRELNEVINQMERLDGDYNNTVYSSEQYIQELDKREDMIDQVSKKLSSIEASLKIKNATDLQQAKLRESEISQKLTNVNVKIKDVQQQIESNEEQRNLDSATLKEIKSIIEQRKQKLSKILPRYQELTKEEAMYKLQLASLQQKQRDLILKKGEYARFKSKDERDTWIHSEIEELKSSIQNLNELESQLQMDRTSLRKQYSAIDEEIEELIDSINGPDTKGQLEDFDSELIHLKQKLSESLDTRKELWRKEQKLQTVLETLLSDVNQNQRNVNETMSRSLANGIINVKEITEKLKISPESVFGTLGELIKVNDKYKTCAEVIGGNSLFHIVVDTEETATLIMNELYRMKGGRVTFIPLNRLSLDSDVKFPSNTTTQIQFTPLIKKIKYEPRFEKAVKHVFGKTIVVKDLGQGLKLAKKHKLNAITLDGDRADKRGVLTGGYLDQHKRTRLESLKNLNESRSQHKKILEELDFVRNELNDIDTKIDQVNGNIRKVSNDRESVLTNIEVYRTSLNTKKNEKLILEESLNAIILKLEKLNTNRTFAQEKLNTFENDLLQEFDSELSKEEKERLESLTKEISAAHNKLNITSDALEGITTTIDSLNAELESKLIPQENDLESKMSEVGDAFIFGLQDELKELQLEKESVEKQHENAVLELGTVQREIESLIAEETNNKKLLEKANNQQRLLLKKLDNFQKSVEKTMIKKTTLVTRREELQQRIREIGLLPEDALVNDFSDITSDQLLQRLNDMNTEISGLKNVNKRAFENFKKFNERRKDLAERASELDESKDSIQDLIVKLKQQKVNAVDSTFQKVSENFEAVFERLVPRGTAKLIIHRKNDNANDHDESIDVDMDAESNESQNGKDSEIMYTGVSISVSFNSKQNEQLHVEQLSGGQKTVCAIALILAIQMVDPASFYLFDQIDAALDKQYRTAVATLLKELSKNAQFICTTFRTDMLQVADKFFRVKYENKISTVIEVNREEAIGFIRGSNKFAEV
The experiment in a line: cross-linking.

Test [2] addresses T2, Smc3(K38I, E570C)-HaloTag (S. cerevisiae) (UniProt P47037).
T2 sequence: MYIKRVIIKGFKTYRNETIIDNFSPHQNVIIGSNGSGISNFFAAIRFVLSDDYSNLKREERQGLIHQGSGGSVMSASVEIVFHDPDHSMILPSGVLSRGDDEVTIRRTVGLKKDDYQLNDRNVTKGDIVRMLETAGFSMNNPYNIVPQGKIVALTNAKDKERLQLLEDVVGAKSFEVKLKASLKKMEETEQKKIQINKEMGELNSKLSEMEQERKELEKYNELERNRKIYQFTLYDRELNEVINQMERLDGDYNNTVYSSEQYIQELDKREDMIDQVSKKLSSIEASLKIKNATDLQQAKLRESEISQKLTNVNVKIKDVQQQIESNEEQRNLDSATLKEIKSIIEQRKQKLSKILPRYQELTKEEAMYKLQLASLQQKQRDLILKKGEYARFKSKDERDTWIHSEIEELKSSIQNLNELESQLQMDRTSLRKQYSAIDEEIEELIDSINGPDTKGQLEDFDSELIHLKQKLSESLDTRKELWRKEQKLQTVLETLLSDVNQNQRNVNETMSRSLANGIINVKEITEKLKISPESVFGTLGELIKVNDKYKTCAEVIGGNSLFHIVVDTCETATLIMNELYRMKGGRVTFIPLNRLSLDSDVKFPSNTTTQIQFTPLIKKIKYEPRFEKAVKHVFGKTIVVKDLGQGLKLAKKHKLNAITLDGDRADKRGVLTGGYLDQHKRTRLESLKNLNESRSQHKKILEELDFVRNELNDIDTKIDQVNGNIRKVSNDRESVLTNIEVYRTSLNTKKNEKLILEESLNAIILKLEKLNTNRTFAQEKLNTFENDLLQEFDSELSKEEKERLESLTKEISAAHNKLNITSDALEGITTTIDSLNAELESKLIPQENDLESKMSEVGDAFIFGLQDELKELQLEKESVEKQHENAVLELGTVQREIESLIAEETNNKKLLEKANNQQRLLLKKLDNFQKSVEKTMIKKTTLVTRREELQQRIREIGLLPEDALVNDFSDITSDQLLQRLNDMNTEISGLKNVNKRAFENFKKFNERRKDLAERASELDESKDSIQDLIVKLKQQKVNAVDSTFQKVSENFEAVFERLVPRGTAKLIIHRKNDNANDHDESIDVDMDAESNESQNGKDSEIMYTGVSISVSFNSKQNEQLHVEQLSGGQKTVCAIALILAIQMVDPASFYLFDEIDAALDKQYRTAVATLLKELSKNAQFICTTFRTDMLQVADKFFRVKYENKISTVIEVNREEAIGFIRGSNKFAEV
Put plainly: cross-linking.

B1: Smc1(K201C) (protein, UniProt P32908 1-1225)
chain: MGRLVGLELSNFKSYRGVTKVGFGESNFTSIIGPNGSGKSNMMDAISFVLGVRSNHLRSNILKDLIYRGVLNDENSDDYDNEGAASSNPQSAYVKAFYQKGNKLVELMRIISRNGDTSYKIDGKTVSYKDYSIFLENENILIKAKNFLVFQGDVEQIAAQSPVELSRMFEEVSGSIQYKKEYEELKEKIEKLSKSATESICNRRRIHGELKTYKEGINKNEEYRKQLDKKNELQKFQALWQLYHLEQQKEELTDKLSALNSEISSLKGKINNEMKSLQRSKSSFVKESAVISKQKSKLDYIFKDKEKLVSDLRLIKVPQQAAGKRISHIEKRIESLQKDLQRQKTYVERFETQLKVVTRSKEAFEEEIKQSARNYDKFKLNENDLKTYNCLHEKYLTEGGSILEEKIAVLNNDKREIQEELERFNKRADISKRRITEELSITGEKLDTQLNDLRVSLNEKNALHTERLHELKKLQSDIESANNQEYDLNFKLRETLVKIDDLSANQRETMKERKLRENIAMLKRFFPGVKGLVHDLCHPKKEKYGLAVSTILGKNFDSVIVENLTVAQECIAFLKKQRAGTASFIPLDTIETELPTLSLPDSQDYILSINAIDYEPEYEKAMQYVCGDSIICNTLNIAKDLKWKKGIRGKLVTIEGALIHKAGLMTGGISGDANNRWDKEEYQSLMSLKDKLLIQIDELSNGQRSNSIRAREVENSVSLLNSDIANLRTQVTQQKRSLDENRLEIKYHNDLIEKEIQPKITELKKKLDDLENTKDNLVKEKEALQNNIFKEFTSKIGFTIKEYENHSGELMRQQSKELQQLQKQILTVENKLQFETDRLSTTQRRYEKAQKDLENAQVEMKSLEEQEYAIEMKIGSIESKLEEHKNHLDELQKKFVTKQSELNSSEDILEDMNSNLQVLKRERDGIKEDIEKFDLERVTALKNCKISNINIPISSETTIDDLPISSTDNEAITISNSIDINYKGLPKKYKENNTDSARKELEQKIHEVEEILNELQPNARALERYDEAEGRFEVINNETEQLKAEEKKILNQFLKIKKKRKELFEKTFDYVSDHLDAIYRELTKNPNSNVELAGGNASLTIEDEDEPFNAGIKYHATPPLKRFKDMEYLSGGEKTVAALALLFAINSYQPSPFFVLDEVDAALDITNVQRIAAYIRRHRNPDLQFIVISLKNTMFEKSDALVGVYRQQQENSSKIITLDLSNYAE
As for B1, the binding entry in test [1] is listed as “binds”.

B2: Smc1(K639C) (protein, UniProt P32908 1-1225)
chain: MGRLVGLELSNFKSYRGVTKVGFGESNFTSIIGPNGSGKSNMMDAISFVLGVRSNHLRSNILKDLIYRGVLNDENSDDYDNEGAASSNPQSAYVKAFYQKGNKLVELMRIISRNGDTSYKIDGKTVSYKDYSIFLENENILIKAKNFLVFQGDVEQIAAQSPVELSRMFEEVSGSIQYKKEYEELKEKIEKLSKSATESIKNRRRIHGELKTYKEGINKNEEYRKQLDKKNELQKFQALWQLYHLEQQKEELTDKLSALNSEISSLKGKINNEMKSLQRSKSSFVKESAVISKQKSKLDYIFKDKEKLVSDLRLIKVPQQAAGKRISHIEKRIESLQKDLQRQKTYVERFETQLKVVTRSKEAFEEEIKQSARNYDKFKLNENDLKTYNCLHEKYLTEGGSILEEKIAVLNNDKREIQEELERFNKRADISKRRITEELSITGEKLDTQLNDLRVSLNEKNALHTERLHELKKLQSDIESANNQEYDLNFKLRETLVKIDDLSANQRETMKERKLRENIAMLKRFFPGVKGLVHDLCHPKKEKYGLAVSTILGKNFDSVIVENLTVAQECIAFLKKQRAGTASFIPLDTIETELPTLSLPDSQDYILSINAIDYEPEYEKAMQYVCGDSIICNTLNIACDLKWKKGIRGKLVTIEGALIHKAGLMTGGISGDANNRWDKEEYQSLMSLKDKLLIQIDELSNGQRSNSIRAREVENSVSLLNSDIANLRTQVTQQKRSLDENRLEIKYHNDLIEKEIQPKITELKKKLDDLENTKDNLVKEKEALQNNIFKEFTSKIGFTIKEYENHSGELMRQQSKELQQLQKQILTVENKLQFETDRLSTTQRRYEKAQKDLENAQVEMKSLEEQEYAIEMKIGSIESKLEEHKNHLDELQKKFVTKQSELNSSEDILEDMNSNLQVLKRERDGIKEDIEKFDLERVTALKNCKISNINIPISSETTIDDLPISSTDNEAITISNSIDINYKGLPKKYKENNTDSARKELEQKIHEVEEILNELQPNARALERYDEAEGRFEVINNETEQLKAEEKKILNQFLKIKKKRKELFEKTFDYVSDHLDAIYRELTKNPNSNVELAGGNASLTIEDEDEPFNAGIKYHATPPLKRFKDMEYLSGGEKTVAALALLFAINSYQPSPFFVLDEVDAALDITNVQRIAAYIRRHRNPDLQFIVISLKNTMFEKSDALVGVYRQQQENSSKIITLDLSNYAE
For the molecule B2, the binding result in test [2] was “binds”.

Source of the values: doi:10.1101/495762 (bioRxiv, 2018).
